{
  "source": "patent US20160193231A1",
  "about": "“RETT SYNDROME AND TREATMENTS THEREFORE” (RETT SYNDROME RESEARCH TRUST, priority 2013, published 2016)",
  "origin": "cited, not measured here",
  "key": {"cytochrome p450 enzymes": {"tested_on": "cytochrome p450 enzymes", "conditions": "cited from earlier work"}, "[1]": {"tested_on": "synthesis in rat microsomes", "conditions": "cited from earlier work"}, "[2]": {"conditions": "(mouse/rat); cited from earlier work"}},
  "data": [
    {"smiles": "CC(C)c1c(C(=O)Nc2ccccc2)c(-c2ccccc2)c(-c2ccc(F)cc2)n1CC[C@@H](O)C[C@@H](O)CC(=O)O", "note": "[atorvastatin]", "values": [
      {"measurement": "Metabolized by:", "setting": "cytochrome p450 enzymes", "result": "Cyp3A4"},
      {"measurement": "IC50", "setting": "[1]", "result": "~6", "unit": "nM"},
      {"measurement": "LD50 (oral):", "setting": "[2]", "result": ">5000", "unit": "mg/kg"}
    ]}
  ]
}
